Laboratory results reported in PubChem BioAssay AID540276 (National Center for Advancing Translational Sciences (NCATS), 2011).
Hit rate of the full screen: of about 300,000 compounds, about 5,400 (1.8%) were called active. Inconclusive means that the source gave no clear call. Such entries were picked first, then a sample of the others. The call rests on the fitted dose curve; tested in HEK293 cells. Where the call is inconclusive, the potency comes from a doubtful curve fit.

Experiment: qHTS for inhibitors of binding or entry into cells for Marburg Virus
Conditions: Marburg virus pseudotyped entry inhibition, cell reporter; series mostly up to 37.8 µM
Potency means the concentration at half of the fitted maximal effect.

Row | Structure (SMILES) | Potency
1 | COc1ccc(NC(=O)c2cccc(S(=O)(=O)N3CCN(c4ccccc4)CC3)c2)c(OC)c1 | inconclusive: 14.1 µM [inhibitor, partial curve, poor fit]
2 | CS(=O)(=O)CCC(C(=O)OCc1ccc(Cl)cc1)N1C(=O)c2ccccc2C1=O (stereo not drawn) | inconclusive: 1.26 µM [activator, single point]
3 | Cc1ccc(N2C(=O)CC2(C#N)c2ccc(OCc3ccccc3)cc2)cc1 (stereo not drawn) | inconclusive: 4.61 µM [inhibitor, single point]
4 | Cc1cccc(-c2nc3ccccc3c(=O)n2NC(=O)c2ccc([N+](=O)[O-])c(C)c2)c1 | inconclusive: 2.82 µM [inhibitor, partial curve, poor fit]
5 | CNc1nc(N)c([N+](=O)[O-])c(NCc2ccccc2)n1 | inactive
6 | CC(=O)c1ccc(OCC(=O)N2CCCC(Nc3ccc(C)c(C)c3)C2)cc1 (stereo not drawn) | inconclusive: 7.08 µM [inhibitor, partial curve, poor fit]
7 | Cc1ccc(N(C(=O)C2CCCC2)C2C=CS(=O)(=O)C2)cc1 (stereo not drawn) | inconclusive: 0.282 µM [inhibitor, partial curve, poor fit]
8 | CCc1cc2c(=O)n(C(C)C(=O)OC3CCCCC3)cnc2s1 (stereo not drawn) | inconclusive: 1.12 µM [activator, full curve, poor fit]
9 | N#Cc1c(NCc2ccccc2)ccnc1NCc1cccnc1 | inconclusive: 29.1 µM [inhibitor, single point]
10 | O=C(CN1C(=O)/C(=C\c2cccs2)SC1=S)Nc1cccc(C(=O)O)c1 | inconclusive: 15.8 µM [inhibitor, single point]
11 | Cc1ccc(O)c(Nc2nc3ccccc3c3nncn23)c1 | inactive
12 | COc1ccc(CCNS(=O)(=O)c2ccc(OC)cc2)cc1 | inconclusive: 5.8 µM [activator, single point]
13 | COc1cccc(C2c3cc4c(cc3OC(N3CCCC3)C2C)OCO4)c1O (stereo not drawn) | inactive
14 | CC(C)(O)C(=O)N/N=C\c1ccc(OC/C=C/c2ccccc2)cc1 | inactive
15 | CCOC(=O)NC(c1ccc(C(C)C)cc1)C(Cl)(Cl)Cl (stereo not drawn) | inactive
16 | CCCCn1c(CNC(=O)C23CC4CC(CC(C4)C2)C3)nnc1SC(C)CC (stereo not drawn) | inconclusive: 5.62 µM [activator, single point]
17 | CCC(C)NC(=O)Nc1ccc(Br)cc1Cl (stereo not drawn) | inconclusive: 6.31 µM [inhibitor, single point]
18 | CC(C)NC(=O)CCS(=O)(=O)c1ccc(Br)s1 | inconclusive: 2.31 µM [activator, partial curve, poor fit]
19 | CSc1nsc(SCc2ccc(Cl)cc2)n1 | inactive
20 | Cc1ccc(-n2c(-c3ccccc3)c[nH]c2=S)cc1 | inactive
21 | CC(=O)Cc1nsc(NC(=O)c2ccc(-c3cccc(C(F)(F)F)c3)o2)n1 | inconclusive: 6.51 µM [inhibitor, single point]
22 | CC(=O)Nc1ccc(SCC(=O)N(CCC#N)c2cc(C)cc(C)c2)cc1 | inconclusive: 11.2 µM [inhibitor, single point]

Row | Structure (SMILES) | Potency
23 | O=C1CN(C(=O)c2ccc(S(=O)(=O)N3CCCC3)cc2)C(c2ccccc2)c2cc(Cl)ccc2N1 (stereo not drawn) | inactive
24 | O=C(Nc1ccccc1F)c1cccc(C(=O)Nc2ccccc2F)c1 | inconclusive: 2.51 µM [activator, full curve, poor fit]
25 | O=C(COc1ccc(Cl)cc1Cl)Nc1ccccc1NS(=O)(=O)c1cccs1 | inconclusive: 1.58 µM [activator, partial curve, poor fit]
26 | COc1ccc(C(=O)C2CCCN(S(=O)(=O)N(C)C)C2)c(C)c1 (stereo not drawn) | inconclusive: 1.78 µM [inhibitor, partial curve, poor fit]
27 | COc1ccc(CN(C(=O)Cn2nnc(-c3ccc(C)o3)n2)C(C(=O)NCC2CCCO2)c2ccco2)cc1 (stereo not drawn) | inconclusive: 2.82 µM [activator, partial curve, poor fit]
28 | Cc1ccc(C)c(NC(=S)Nc2cccnc2)c1 | inconclusive: 0.501 µM [activator, full curve, poor fit]
29 | CC(=O)Nc1cccc(C(=O)OCc2ccccc2)c1 | inconclusive: 0.411 µM [activator, full curve, poor fit]
30 | Cc1nc2nc(SCC(=O)NCCCN3CCCCCC3)nn2c(C)c1Cc1ccccc1 | inconclusive: 20 µM [inhibitor, partial curve, poor fit]
31 | O=C(Nc1c(C(=O)c2ccccc2)oc2ccccc12)c1ccc(F)cc1 | inactive
32 | CCC(=O)Nc1ccc(-c2nc3ccccc3c(=O)o2)cc1 | inactive
33 | COc1ccc(CC(=O)Nc2ccc(OC)nc2)cc1 | inactive
34 | NS(=O)(=O)c1ccc(NNC(=O)c2cccs2)cc1 | inconclusive: 35.5 µM [inhibitor, single point]
35 | COc1cc(C(=O)Nc2ccc(Br)cc2C(=O)c2cc(OC)c(OC)c(OC)c2)cc(OC)c1OC | inconclusive: 4.61 µM [inhibitor, full curve, poor fit]
36 | CN(CP(=O)(O)CN(C)S(C)(=O)=O)S(C)(=O)=O | inconclusive: 1.26 µM [inhibitor, single point]
37 | CC(C)(C)NC(=O)CCN(/N=C/c1ccc([N+](=O)[O-])o1)C1=NS(=O)(=O)c2ccccc21 | inconclusive: 2.82 µM [inhibitor, partial curve, poor fit]
38 | CC(=O)N1CCN(c2ccccc2NC(=O)c2ccc(Br)o2)CC1 | inactive
39 | O=C(NNC(=O)C1CC=CCC1C(=O)O)c1cccs1 (stereo not drawn) | inactive
40 | CCCCNC(=O)c1[nH]c2ccccc2c1Sc1ccc(C)cc1 | inconclusive: 8.91 µM [activator, partial curve, poor fit]
41 | Cc1ccc(C)n1-c1sccc1C(=O)O | inconclusive: 12.6 µM [inhibitor, single point]
42 | O=[N+]([O-])c1ccccc1-c1ccc(C(=S)N2CCCCC2)o1 | inconclusive: 5.62 µM [activator, single point]
43 | Cc1ccc(C(=O)N[C@H](C(=O)OCc2cc(=O)oc3cc(C)ccc23)C(C)C)cc1 | inconclusive: 3.55 µM [inhibitor, single point]

Compounds from the list above with an NH in an aromatic ring (two):
Row | Structure (SMILES) | Potency
20 | Cc1ccc(-n2c(-c3ccccc3)c[nH]c2=S)cc1 | inactive
40 | CCCCNC(=O)c1[nH]c2ccccc2c1Sc1ccc(C)cc1 | inconclusive: 8.91 µM [activator, partial curve, poor fit]
